Binding data for 1 molecule are collected here from paper doi:10.1101/2021.04.11.438637.

Protein sequences, listed by entry. Tags and fused reporters are not part of them. Lines headed by an entry give the natural chain unless they say otherwise; changes in a name come on top.
UniProt O04567: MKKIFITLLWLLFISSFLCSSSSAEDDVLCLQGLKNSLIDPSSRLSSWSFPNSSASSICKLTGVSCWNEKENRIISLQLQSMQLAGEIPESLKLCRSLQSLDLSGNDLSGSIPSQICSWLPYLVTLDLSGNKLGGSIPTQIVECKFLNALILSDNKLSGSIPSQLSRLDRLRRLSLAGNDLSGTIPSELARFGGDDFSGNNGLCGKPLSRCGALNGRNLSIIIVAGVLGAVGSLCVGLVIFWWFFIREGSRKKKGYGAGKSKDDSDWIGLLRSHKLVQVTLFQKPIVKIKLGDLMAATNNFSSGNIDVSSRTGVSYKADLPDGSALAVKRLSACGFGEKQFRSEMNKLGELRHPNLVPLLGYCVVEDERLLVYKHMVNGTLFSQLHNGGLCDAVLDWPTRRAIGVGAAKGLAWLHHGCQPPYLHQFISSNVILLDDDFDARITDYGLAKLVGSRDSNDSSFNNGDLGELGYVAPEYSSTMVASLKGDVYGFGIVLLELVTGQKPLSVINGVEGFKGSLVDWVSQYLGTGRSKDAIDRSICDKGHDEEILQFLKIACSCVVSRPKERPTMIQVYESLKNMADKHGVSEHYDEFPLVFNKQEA

Results are given in words; binding and its absence hold for the method and conditions named. In cells and extracts the contact can be indirect. A yes stands for co-enrichment or nearness to the bait. Other partners may have been found.

This experiment deals with BIR3-YFP (Arabidopsis thaliana) (UniProt O04567). Kind of experiment: affinity purification with mass spectrometry.

B1: CONSTITUTIVE SHADE AVOIDANCE 1 (CSA1), endogenous (protein, UniProt F4KIF3 1-1197)
chain: MTSSSSWVKTDGETPQDQVFINFRGVELRKNFVSHLEKGLKRKGINAFIDTDEEMGQELSVLLERIEGSRIALAIFSPRYTESKWCLKELAKMKERTEQKELVVIPIFYKVQPVTVKELKGDFGDKFRELVKSTDKKTKKEWKEALQYVPFLTGIVLDEKSDEDEVINIIIRKVKEILNRRSEGPPSKCSALPPQRHQKRHETFWGIELRIKQLEEKLRFGSDETTRTIGVVGMPGIGKTTLATMLYEKWNDRFLRHVLIRDIHEASEEDGLNYLATKFLQGLLKVENANIESVQAAHEAYKDQLLETKVLVILDNVSNKDQVDALLGERNWIKKGSKILITTSDKSLMIQSLVNDTYEVPPLSDKDAIKHFIRYAFDGNEGAAPGPGQGNFPKLSKDFVHYTKGNPLALQMLGKELLGKDESHWGLKLNALDQHHNSPPGQSICKMLQRVWEGSYKALSQKEKDALLDIACFRSQDENYVASLLDSDGPSNILEDLVNKFMINIYAGKVDMHDTLYMLSKELGREATATDRKGRHRLWHHHTIIAVLDKNKGGSNIRSIFLDLSDITRKWCFYRHAFAMMRDLRYLKIYSTHCPQECESDIKLNFPEGLLLPLNEVRYLHWLKFPLKEVPQDFNPGNLVDLKLPYSEIERVWEDNKDAPKLKWVNLNHSKKLNTLAGLGKAQNLQELNLEGCTALKEMHVDMENMKFLVFLNLRGCTSLKSLPEIQLISLKTLILSGCSKFKTFQVISDKLEALYLDGTAIKELPCDIGRLQRLVMLNMKGCKKLKRLPDSLGQLKALEELILSGCSKLNEFPETWGNMSRLEILLLDETAIKDMPKILSVRRLCLNKNEKISRLPDLLNKFSQLQWLHLKYCKNLTHVPQLPPNLQYLNVHGCSSLKTVAKPLVCSIPMKHVNSSFIFTNCNELEQAAKEEIVVYAERKCHLLASALKRCDESCVPEILFCTSFPGCEMPSWFSHDAIGSMVEFELPPHWNHNRLSGIALCVVVSFKNCKSHANLIVKFSCEQNNGEGSSSSITWKVGSLIEQDNQEETVESDHVFIGYTNCLDFIKLVKGQGGPKCAPTKASLEFSVRTGTGGEATLEVLKSGFSFVFEPEENRVPSPRNDDVKGKVKINKTPSANGCFKDQAKGNESPKGQWQTYIENSSTNIPSEAHSSQKTGFNGFNGMYSVCVLYEMYSH
On to B1, for which the binding result is reported as “binds”.
